We go through two molecules from paper PMC12457717.

These are yes or no findings as the source states them, for the method shown. In cells and extracts the contact can be indirect. Some results given as binding are weak or reduced against the parent protein; the word gives no strength. For some assays here: Tags and fused reporters may be left off the sequences shown.

The target in assay [1] is T1, Flag-FBXO32 (F-Box Protein 32) (UniProt Q969P5).
T1 sequence: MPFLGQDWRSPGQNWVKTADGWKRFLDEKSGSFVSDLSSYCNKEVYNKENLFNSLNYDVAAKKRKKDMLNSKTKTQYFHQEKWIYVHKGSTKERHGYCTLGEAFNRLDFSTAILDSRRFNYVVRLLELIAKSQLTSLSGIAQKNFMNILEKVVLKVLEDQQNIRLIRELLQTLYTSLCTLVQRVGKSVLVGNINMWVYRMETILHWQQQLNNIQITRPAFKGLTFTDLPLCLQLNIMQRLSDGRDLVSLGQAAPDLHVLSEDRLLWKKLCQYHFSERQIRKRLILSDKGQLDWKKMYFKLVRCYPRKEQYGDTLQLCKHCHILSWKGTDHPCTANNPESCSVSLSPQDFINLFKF
In words: co-IP; anti-Flag antibody IP from lysate of Flag-FBXO32-overexpressing HEK293T cells; ice-cold IP buffer, antibody-conjugated beads overnight at 4°C, western blotting.

In assay [2] the target is T2, F-Box Protein 32 (FBXO32), endogenous in MHCC97H cells (human (endogenous in MHCC97H)) (UniProt Q969P5).
T2 sequence: T1 sequence
The assay is described as follows: co-IP; endogenous IP from MHCC97H cell lysate; antibody-conjugated beads overnight at 4°C, western blotting; which protein was precipitated is not told. A general note: A western blot detects proteins with antibodies after separation by electrophoresis.

B1: pleckstrin homology domain leucine-rich repeat protein phosphatase 2 (PHLPP2), in HEK293T cells (protein, UniProt Q6ZVD8 1-1323)
chain: MKRNGSRNCLNRRSRFGSRERDWLREDVKRGCVYLYGADTTTATTTTTTSSSSSSSSSSSDLHLVLCTVETPASEICAGEGRESLYLQLHGDLVRRLEPTERPLQIVYDYLSRLGFDDPVRIQEEATNPDLGCMIRFYGEKPCHMDRLDRILLSGIYNVRKGKTQLHKWAERLVVLCGTCLIVSSVKDCQTGKMHILPLVGGKIEEVKRRQYSLAFSSAGAQAQTYHVSFETLAEYQRWQRQASKVVSQRISTVDLSCYSLEEVPEHLFYSQDITYLNLRHNFMQLERPGGLDTLYKFSQLKGLNLSHNKLGLFPILLCEISTLTELNLSCNGFHDLPSQIGNLLNLQTLCLDGNFLTTLPEELGNLQQLSSLGISFNNFSQIPEVYEKLTMLDRVVMAGNCLEVLNLGVLNRMNHIKHVDLRMNHLKTMVIENLEGNKHITHVDLRDNRLTDLDLSSLCSLEQLHCGRNQLRELTLSGFSLRTLYASSNRLTAVNVYPVPSLLTFLDLSRNLLECVPDWACEAKKIEVLDVSYNLLTEVPVRILSSLSLRKLMLGHNHVQNLPTLVEHIPLEVLDLQHNALTRLPDTLFSKALNLRYLNASANSLESLPSACTGEESLSMLQLLYLTNNLLTDQCIPVLVGHLHLRILHLANNQLQTFPASKLNKLEQLEELNLSGNKLKTIPTTIANCKRLHTLVAHSNNISIFPEILQLPQIQFVDLSCNDLTEILIPEALPATLQDLDLTGNTNLVLEHKTLDIFSHITTLKIDQKPLPTTDSTVTSTFWSHGLAEMAGQRNKLCVSALAMDSFAEGVGAVYGMFDGDRNEELPRLLQCTMADVLLEEVQQSTNDTVFMANTFLVSHRKLGMAGQKLGSSALLCYIRPDTADPASSFSLTVANVGTCQAVLCRGGKPVPLSKVFSLEQDPEEAQRVKDQKAIITEDNKVNGVTCCTRMLGCTYLYPWILPKPHISSTPLTIQDELLILGNKALWEHLSYTEAVNAVRHVQDPLAAAKKLCTLAQSYGCQDNVGAMVVYLNIGEEGCTCEMNGLTLPGPVGFASTTTIKDAPKPATPSSSSGIASEFSSEMSTSEVSSEVGSTASDEHNAGGLDTALLPRPERRCSLHPTPTSGLFQRQPSSATFSSNQSDNGLDSDDDQPVEGVITNGSKVEVEVDIHCCRGRDLENSPPLIESSPTLCSEEHARGSCFGIRRQNSVNSGMLLPMSKDRMELQKSPSTSCLYGKKLSNGSIVPLEDSLNLIEVATEVPKRKTGYFAAPTQMEPEDQFVVPHDLEEEVKEQMKQHQDSRLEPEPHEEDRTEPPEEFDTAL
For B1, in assay [1], the binding result is “binds”.

B2: pleckstrin homology domain leucine-rich repeat protein phosphatase 2 (PHLPP2), endogenous in MHCC97H cells (protein, UniProt Q6ZVD8 1-1323)
chain: B1 chain
With B2, the binding result in assay [2] was “binds”.
